Source: US20090131317A1, “COMPOUNDS AND PEPTIDES THAT BIND THE TRAIL RECEPTOR” (AFFYMAX, INC., priority 2007, published 2009)
At least one compound was matched to its structure with a doubt left. Numbered stars: 1 amine (or outer) side, 2 acyl side, 3 side chain; on linkers, the order of the positions; unused ones are H or OH. Bridge positions count the residues as written; N and C are the ends. Peptide text beside a SMILES is read from it. I, II: the chains in the order shown. Diglycolyl = O=C(COCC(=O)[*:2])[*:1]

Experiments:
[1] = tested on: HCT-116 cells; format: cell-based
Protocol: The apoptotic activity of test peptides is measured using an HCT-116 proliferation assay. The HCT-116 assay is used to measure the activity of TRAIL R2 agonist peptides using the colon carcinoma cell line HCT-116 (ATCC, Manassas, Va.).
In more detail, a peptide homotrimer based on the peptide monomer sequence of SEQ ID NO: 19 (See, FIG. 8B) is tested for functional activity using the HCT-116 proliferation assay. HCT-116 cells are incubated for one to two days in the presence of serially diluted peptide dimers or peptide trimers. […]
Cell viability is measured using an MTT colorimetric viability assay, a colorimetric assay that analyzes the number of viable cells by measuring the ability of mitochondrial dehydrogenase enzyme in the viable cells to cleave tetrazolium salts added to the culture medium [See, Mosmann (1983) J. Immunol. […] Using this assay, cell proliferation is assessed after 24-48 hours by adding 10 μL of MTT stock solution (ATCC, Manassas, Va.) to the wells. […] After incubation overnight in a 37° C., 5% CO2 incubator, the plates are quantified by reading the optical density at 595 nm (OD595) in a SpectraMax M5 microplate reader (Molecular Devices, Sunnyvale, Calif.). The data are analyzed using GraphPad® Prism software (La Jolla, Calif.) to calculate IC50 values from a 4-parameter logistic equation.

[2] = tested on: Jurkat cells; format: cell-based
Protocol: The apoptotic activity of test peptides is measured using a Jurkat proliferation assay.
Jurkat cells are obtained from the American Type Culture Collection (ATCC, Manassas, Va.) and are maintained in RPMI-1640 medium supplemented with 10% FBS, 100 U/mL penicillin, and 100 […] (Growth Medium). […] Cells are resuspended at a density of 1×10^6 cells/mL in Growth Medium, and 50 μl cells is added to each well of the assay plates. The plates are incubated in a 37° C., 5% CO2 incubator for 24-48 hours. Proliferation is assessed by adding 10 μL of MTT stock solution (ATCC, Manassas, Va.) to the wells. The plates are incubated in a 37° C., 5% CO2 incubator for another 2-4 hours, followed by the addition of 100 μL of 20% SDS with 0.01 N HCl. After incubation overnight in a 37° C., 5% CO2 incubator, the plates are quantified by reading the optical density at a wavelength of 595 nm (OD595) in a SpectraMax® M5 microplate reader (Molecular Devices, Sunnyvale, Calif.). The data are analyzed using GraphPad Prism® software (La Jolla, Calif.) to calculate IC50 values from a 4-parameter logistic equation.

CC[C@H](C)[C@@H]1NC(=O)[C@H](CCCNC(=N)N)NC(=O)[C@H](CC(N)=O)NC(=O)[C@H](CC(=O)O)NC(=O)[C@H](CC(C)C)NC(=O)[C@@H](NC(=O)[C@H](CC(=O)O)NC(=O)[C@H](Cc2c[nH]c3ccccc23)NC(C)=O)CSSC[C@@H](C(=O)N[C@H](C(=O)N[C@@H](CCCNC(=N)N)C(N)=O)C(C)C)NC(=O)[C@H](CCC(N)=O)NC(=O)[C@H](CCCNC(=N)N)NC(=O)[C@H](CCCCNC(=O)COCC(=O)NCCCC[C@@H]2NC(=O)CNC(=O)[C@H]([C@@H](C)CC)NC(=O)[C@H](CCCNC(=N)N)NC(=O)[C@H](CC(N)=O)NC(=O)[C@H](CC(=O)O)NC(=O)[C@H](CC(C)C)NC(=O)[C@@H](NC(=O)[C@H](CC(=O)O)NC(=O)[C@H](Cc3c[nH]c4ccccc34)NC(C)=O)CSSC[C@@H](C(=O)N[C@H](C(=O)N[C@@H](CCCNC(=N)N)C(N)=O)C(C)C)NC(=O)[C@H](CCC(N)=O)NC(=O)[C@H](CCCNC(=N)N)NC2=O)NC(=O)CNC1=O [SEQ ID NO: 33 homodimer] (I: Ac-WDCLDNRIGKRQCVR-NH2 / II: Ac-WDCLDNRIGKRQCVR-NH2; disulfide I:3-I:13, II:3-II:13; linker I:10-II:10 via Diglycolyl) was tested, and the “apoptotic activity (detected or not)” value [1] was “No apoptotic activity is detected” and the “apoptotic activity (detected or not)” value [2] was “No apoptotic activity is detected”.
